From patent publication US12296019 (dated 2025) come the findings set out here.

This series can be described thus: peptide synthesis. To be noted: whole synthesis, analytical HPLC.

Consider “norbornene-PEG8-Asp-Cys*-Ala-Trp-His-Lys-Gly-Glu-Leu-Val-Trp-Cys*-Thr-NH2”, for which the “final HPLC purity” value is given as “purity of 90% or more”.
